From patent US20040116348A1, “Polymer-linker-drug conjugates for targeted drug delivery” (priority 2002, published 2004)
Not every detail of the peptide structures is certain; ends, links or a residue may be inferred.

Test system: human tumor cell lines
Test: MTT cytotoxicity, overall statement over the panel of human tumor cell lines
Assay type: cell-based
Conditions: six human tumor cell lines
Method: Cell survival was assayed using an indirect colorimetric […] (MTT assay, e.g., see Alley et al., Cancer Res. 48:589, 1988). The tetrazolium salt MTT is metabolized by NAD-dependent dehydrogenase to form a colored reaction product and the amount of dye formed directly correlates with the number of viable cells. The formula for calculating % survival is given by: […]

## CC[C@H](C)[C@H](NC(=O)[C@@H](N)CC(C)C)C(=O)NCC(=O)N[C@H]1C[C@H](O[C@H]2C[C@](O)(C(=O)CO)Cc3c(O)c4c(c(O)c32)C(=O)c2c(OC)cccc2C4=O)O[C@@H](C)[C@H]1O [LIG-doxorubicin]
  potency relative to free doxorubicin: less potent than the free drug doxorubicin
